Taken from: PubChem BioAssay AID1508597 (Cure First, 2020)
This is an unselected part of the about 2,100 reagents, in one setting of the screen. 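Calls flag viability under 80% in either arm, not effects specific to rucaparib; the reference for percent is not stated.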 Entries without a mark were called inactive. Reagents against one gene are numbered here. A reagent listed more than once was tested more than once; the source does not tell the runs apart. No sequences are given here. Not given: the 100% reference.

- Test: 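Survival screen with siRNA in ovarian cancer cells derived from patients, with or without rucaparib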 (primary screen)
- Cell system: human ovarian carcinoma lines grown from tumours: OCI-P5x (papillary serous) and OCI-C5x (clear cell)
- Reagents: siRNA pool against human genes, 1.25 pmol siRNA per well
- Time to read-out: 72 h or 96 h, depending on the cell culture
- Challenge: rucaparib 20 µM (about IC30) or vehicle, present until read-out
- Rucaparib or vehicle: Rucaparib
- Cell line: OCI-C5x (clear cell)
- Measurement: 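Luminescent ATP-based viability assay read 72 or 96 h after transfection, depending on culture, given as normalised percent viability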
- Reading the numbers: viability, normalised: higher = more viable cells remaining
- Hit rule: 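a well counts as a hit if its normalised viability is under 80 percent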
- Meaning of the calls: active = viability under 80%; inactive = viability 80% or more

gene | reagent | technical replicate | viability, normalised (%)
ZKSCAN2 | 1 | 1 | 67.8 (active)
ZKSCAN2 | 1 | 2 | 79.5 (active)
ZKSCAN2 | 1 | 3 | 58.8 (active)
CBX8 | 1 | 1 | 65.9 (active)
CBX8 | 1 | 2 | 65.6 (active)
CBX8 | 1 | 3 | 49.8 (active)
FGFR1 | 1 | 1 | 52.9 (active)
FGFR1 | 1 | 2 | 82.4
FGFR1 | 1 | 3 | 63.3 (active)
MED28 | 1 | 1 | 48.7 (active)
MED28 | 1 | 2 | 48.6 (active)
MED28 | 1 | 3 | 38.9 (active)
BLNK | 1 | 1 | 45.9 (active)
BLNK | 1 | 2 | 44.4 (active)
BLNK | 1 | 3 | 35.6 (active)
HKDC1 | 1 | 1 | 49.1 (active)
HKDC1 | 1 | 2 | 53.7 (active)
HKDC1 | 1 | 3 | 40.4 (active)
ITPKC | 1 | 1 | 47.3 (active)
ITPKC | 1 | 2 | 56 (active)
ITPKC | 1 | 3 | 45 (active)
SETD6 | 1 | 1 | 26.3 (active)
SETD6 | 1 | 2 | 24.7 (active)
SETD6 | 1 | 3 | 28.9 (active)
PI4KB | 1 | 1 | 41.9 (active)
PI4KB | 1 | 2 | 37 (active)
PI4KB | 1 | 3 | 44.4 (active)
PI4KB | 2 | 1 | 41.5 (active)
PI4KB | 2 | 2 | 48.3 (active)
PI4KB | 2 | 3 | 50.7 (active)

The list goes on, starting with the last 6 of the part before.
gene | reagent | technical replicate | viability, normalised (%)
PI4KB | 1 | 1 | 41.9 (active)
PI4KB | 1 | 2 | 37 (active)
PI4KB | 1 | 3 | 44.4 (active)
PI4KB | 2 | 1 | 41.5 (active)
PI4KB | 2 | 2 | 48.3 (active)
PI4KB | 2 | 3 | 50.7 (active)
TERF2IP | 1 | 1 | 68.3 (active)
TERF2IP | 1 | 2 | 58.6 (active)
TERF2IP | 1 | 3 | 58.8 (active)
STK17A | 1 | 1 | 36.1 (active)
STK17A | 1 | 2 | 43.2 (active)
STK17A | 1 | 3 | 50.1 (active)
EDF1 | 1 | 1 | 35.2 (active)
EDF1 | 1 | 2 | 37.4 (active)
EDF1 | 1 | 3 | 34 (active)
RCOR3 | 1 | 1 | 65.6 (active)
RCOR3 | 1 | 2 | 51.4 (active)
RCOR3 | 1 | 3 | 57.1 (active)
EME1 | 1 | 1 | 58.2 (active)
EME1 | 1 | 2 | 48.8 (active)
EME1 | 1 | 3 | 62.6 (active)
CDK7 | 1 | 1 | 61.5 (active)
CDK7 | 1 | 1 | 76.5 (active)
CDK7 | 1 | 2 | 63.3 (active)
CDK7 | 1 | 2 | 66 (active)
CDK7 | 1 | 3 | 59.3 (active)
CDK7 | 1 | 3 | 66.5 (active)
POLD3 | 1 | 1 | 58.1 (active)
POLD3 | 1 | 2 | 66.5 (active)
POLD3 | 1 | 3 | 60.6 (active)
GTF2H4 | 1 | 1 | 64.6 (active)
GTF2H4 | 1 | 1 | 45.6 (active)
GTF2H4 | 1 | 2 | 50.9 (active)
GTF2H4 | 1 | 2 | 51.8 (active)
GTF2H4 | 1 | 3 | 37.3 (active)
GTF2H4 | 1 | 3 | 56.5 (active)
